This passage reports binding results from paper PMC5788269.

For this assay, the target named is T1, Ref2, TAPS-tagged (native CPF/APT subunit) (yeast) (UniProt P42073).
T1 sequence: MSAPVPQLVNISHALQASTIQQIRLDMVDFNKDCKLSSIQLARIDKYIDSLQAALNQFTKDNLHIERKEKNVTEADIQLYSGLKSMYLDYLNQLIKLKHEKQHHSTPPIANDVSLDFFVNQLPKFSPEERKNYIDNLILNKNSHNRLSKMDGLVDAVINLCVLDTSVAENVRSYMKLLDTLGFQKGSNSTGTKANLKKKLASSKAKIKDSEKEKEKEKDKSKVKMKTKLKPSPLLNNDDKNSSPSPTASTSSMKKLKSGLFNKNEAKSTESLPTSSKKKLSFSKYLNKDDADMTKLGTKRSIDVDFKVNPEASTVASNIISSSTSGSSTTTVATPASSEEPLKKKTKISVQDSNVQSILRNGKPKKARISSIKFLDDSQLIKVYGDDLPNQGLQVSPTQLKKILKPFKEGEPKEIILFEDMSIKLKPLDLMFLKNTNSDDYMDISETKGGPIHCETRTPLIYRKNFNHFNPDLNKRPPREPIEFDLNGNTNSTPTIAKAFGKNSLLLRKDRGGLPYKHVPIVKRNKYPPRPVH
The assay is described as follows: affinity purification with mass spectrometry; native CPF/APT purified by a tandem affinity purification tag from a yeast strain containing TAPS-tagged Ref2; Coomassie SDS-PAGE; composition analysed by noncovalent nanoESI-MS.

No constants are given. Whether binding was seen depends on the method and setting. In cells and extracts the contact can be indirect. Here binding means that the protein was enriched with, or labelled near, the bait; the list need not be complete. Sequences can lack the tags named with a protein.

B1: Pfs2 (native CPF subunit) (protein, UniProt P42841 1-465)
chain: MDGHNQNQYQNQNQIQQSQQPPLKKYVTQRRSVDVSSPYINLYYNRRHGLPNLVVEPETSYTIDIMPPNAYRGRDRVINLPSKFTHLSSNKVKHVIPAIQWTPEGRRLVVATYSGEFSLWNASSFTFETLMQAHDSAVTTMKYSHDSDWMISGDADGMIKIWQPNFSMVKEIDAAHTESIRDMAFSSNDSKFVTCSDDNILKIWNFSNGKQERVLSGHHWDVKSCDWHPEMGLIASASKDNLVKLWDPRSGNCISSILKFKHTVLKTRFQPTKGNLLMAISKDKSCRVFDIRYSMKELMCVRDETDYMTLEWHPINESMFTLACYDGSLKHFDLLQNLNEPILTIPYAHDKCITSLSYNPVGHIFATAAKDRTIRFWTRARPIDPNAYDDPTYNNKKINGWFFGINNDINAVREKSEFGAAPPPPATLEPHALPNMNGFINKKPRQEIPGIDSNIKSSTLPGLSI
Turning to B1, the binding entry was “binds”.

B2: Cft2 (native CPF subunit) (protein, UniProt Q12102 1-859)
chain: MTYKYNCCDDGSGTTVGSVVRFDNVTLLIDPGWNPSKVSYEQCIKYWEKVIPEIDVIILSQPTIECLGAHSLLYYNFTSHFISRIQVYATLPVINLGRVSTIDSYASAGVIGPYDTNKLDLEDIEISFDHIVPLKYSQLVDLRSRYDGLTLLAYNAGVCPGGSIWCISTYSEKLVYAKRWNHTRDNILNAASILDATGKPLSTLMRPSAIITTLDRFGSSQPFKKRSKIFKDTLKKGLSSDGSVIIPVDMSGKFLDLFTQVHELLFESTKINAHTQVPVLILSYARGRTLTYAKSMLEWLSPSLLKTWENRNNTSPFEIGSRIKIIAPNELSKYPGSKICFVSEVGALINEVIIKVGNSEKTTLILTKPSFECASSLDKILEIVEQDERNWKTFPEDGKSFLCDNYISIDTIKEEPLSKEETEAFKVQLKEKKRDRNKKILLVKRESKKLANGNAIIDDTNGERAMRNQDILVENVNGVPPIDHIMGGDEDDDEEEENDNLLNLLKDNSEKSAAKKNTEVPVDIIIQPSAASKHKMFPFNPAKIKKDDYGTVVDFTMFLPDDSDNVNQNSRKRPLKDGAKTTSPVNEEDNKNEEEDGYNMSDPISKRSKHRASRYSGFSGTGEAENFDNLDYLKIDKTLSKRTISTVNVQLKCSVVILNLQSLVDQRSASIIWPSLKSRKIVLSAPKQIQNEEITAKLIKKNIEVVNMPLNKIVEFSTTIKTLDISIDSNLDNLLKWQRISDSYTVATVVGRLVKESLPQVNNHQKTASRSKLVLKPLHGSSRSHKTGALSIGDVRLAQLKKLLTEKNYIAEFKGEGTLVINEKVAVRKINDAETIIDGTPSELFDTVKKLVTDMLAKI
Take B2: the binding entry was “binds”.

B3: Yth1 (native CPF subunit) (protein, UniProt Q06102 1-208)
chain: MSLIHPDTAKYPFKFEPFLRQEYSFSLDPDRPICEFYNSREGPKSCPRGPLCPKKHVLPIFQNKIVCRHWLRGLCKKNDQCEYLHEYNLRKMPECVFFSKNGYCTQSPDCQYLHIDPASKIPKCENYEMGFCPLGSSCPRRHIKKVFCQRYMTGFCPLGKDECDMEHPQFIIPDEGSKLRIKRDDEINTRKMDEEKERRLNAIINGEV
Take B3: the binding result was “binds”.

B4: Cft1 (native CPF subunit) (protein, UniProt Q06632 1-1357)
chain: MNVYDDVLDATVVSHSLATHFTTSDYEELLVVRTNILSVYRPTRDGKLYLTDEFKFHGLITDIGLIPQKDSPLSCLLLCTGVAKISILKFNTLTNSIDTLSLHYYEGKFKGKSLVELAKISTLRMDPGSSCALLFNNDIIAFLPFHVNKNDDDEEEEDEDENIDDSELIHSMNQKSQGTNTFNKRKRTKLGDKFTAPSVVLVASELYEGAKNIIDIQFLKNFTKPTIALLYQPKLVWAGNTTISKLPTQYVILTLNIQPAESATKIESTTIAFVKELPWDLHTIVPVSNGAIIVGTNELAFLDNTGVLQSTVLLNSFADKELQKTKIINNSSLEIMFREKNTTSIWIPSSKSKNGGSNNDETLLLMDLKSNIYYIQMEAEGRLLIKFDIFKLPIVNDLLKENSNPKCITRLNATNSNKNMDLFIGFGSGNALVLRLNNLKSTIETREAHNPSSGTNSLMDINDDDDEEMDDLYADEAPENGLTTNDSKGTVETVQPFDIELLSSLRNVGPITSLTVGKVSSIDDVVKGLPNPNKNEYSLVATSGNGSGSHLTVIQTSVQPEIELALKFISITQIWNLKIKGRDRYLITTDSTKSRSDIYESDNNFKLHKGGRLRRDATTVYISMFGEEKRIIQVTTNHLYLYDTHFRRLTTIKFDYEVIHVSVMDPYILVTVSRGDIKIFELEEKNKRKLLKVDLPEILNEMVITSGLILKSNMCNEFLIGLSKSQEEQLLFTFVTADNQIIFFTKDHNDRIFQLNGVDQLNESLYISTYQLGDEIVPDPSIKQVMINKLGHDNKEEYLTILTFGGEIYQYRKLPQRRSRFYRNVTRNDLAITGAPDNAYAKGVSSIERIMHYFPDYNGYSVIFVTGSVPYILIKEDDSTPKIFKFGNIPLVSVTPWSERSVMCVDDIKNARVYTLTTDNMYYGNKLPLKQIKISNVLDDYKTLQKLVYHERAQLFLVSYCKRVPYEALGEDGEKVIGYDENVPHAEGFQSGILLINPKSWKVIDKIDFPKNSVVNEMRSSMIQINSKTKRKREYIIAGVANATTEDTPPTGAFHIYDVIEVVPEPGKPDTNYKLKEIFQEEVSGTVSTVCEVSGRFMISQSQKVLVRDIQEDNSVIPVAFLDIPVFVTDSKSFGNLLIIGDAMQGFQFIGFDAEPYRMISLGRSMSKFQTMSLEFLVNGGDMYFAATDADRNVHVLKYAPDEPNSLSGQRLVHCSSFTLHSTNSCMMLLPRNEEFGSPQVPSFQNVGGQVDGSVFKIVPLSEEKYRRLYVIQQQIIDRELQLGGLNPRMERLANDFYQMGHSMRPMLDFNVIRRFCGLAIDRRKSIAQKAGRHAHFEAWRDIINIEFSMRSLCQGK
On to B4, for which the binding result is listed as “binds”.

B5: Ysh1 (native CPF subunit) (enzyme, UniProt Q06224 1-779)
chain: MERTNTTTFKFFSLGGSNEVGRSCHILQYKGKTVMLDAGIHPAYQGLASLPFYDEFDLSKVDILLISHFHLDHAASLPYVMQRTNFQGRVFMTHPTKAIYRWLLRDFVRVTSIGSSSSSMGTKDEGLFSDEDLVDSFDKIETVDYHSTVDVNGIKFTAFHAGHVLGAAMFQIEIAGLRVLFTGDYSREVDRHLNSAEVPPLSSNVLIVESTFGTATHEPRLNRERKLTQLIHSTVMRGGRVLLPVFALGRAQEIMLILDEYWSQHADELGGGQVPIFYASNLAKKCMSVFQTYVNMMNDDIRKKFRDSQTNPFIFKNISYLRNLEDFQDFGPSVMLASPGMLQSGLSRDLLERWCPEDKNLVLITGYSIEGTMAKFIMLEPDTIPSINNPEITIPRRCQVEEISFAAHVDFQENLEFIEKISAPNIILVHGEANPMGRLKSALLSNFASLKGTDNEVHVFNPRNCVEVDLEFQGVKVAKAVGNIVNEIYKEENVEIKEEIAAKIEPIKEENEDNLDSQAEKGLVDEEEHKDIVVSGILVSDDKNFELDFLSLSDLREHHPDLSTTILRERQSVRVNCKKELIYWHILQMFGEAEVLQDDDRVTNQEPKVKEESKDNLTNTGKLILQIMGDIKLTIVNTLAVVEWTQDLMNDTVADSIIAILMNVDSAPASVKLSSHSCDDHDHNNVQSNAQGKIDEVERVKQISRLFKEQFGDCFTLFLNKDEYASNKEETITGVVTIGKSTAKIDFNNMKILECNSNPLKGRVESLLNIGGNLVTPLC
Regarding B5, the binding result is “binds”.

B6: Fip1 (native CPF subunit) (protein, UniProt P45976 1-327)
chain: MSSSEDEDDKFLYGSDSELALPSSKRSRDDEADAGASSNPDIVKRQKFDSPVEETPATARDDRSDEDIYSDSSDDDSDSDLEVIISLGPDPTRLDAKLLDSYSTAATSSSKDVISVATDVSNTITKTSDERLITEGEANQGVTATTVKATESDGNVPKAMTGSIDLDKEGIFDSVGITTIDPEVLKEKPWRQPGANLSDYFNYGFNEFTWMEYLHRQEKLQQDYNPRRILMGLLSLQQQGKLNSANDTDSNLGNIIDNNNNVNNANMSNLNSNMGNSMSGTPNPPAPPMHPSFPPLPMFGSFPPFPMPGMMPPMNQQPNQNQNQNSK
For B6, the binding entry is “binds”.
